Assay results taken from the supplement of paper PMC8728848.
The other results are listed elsewhere or left out.

How the values were obtained:
Test in all cases: glycan array binding signal (z-score within array); higher = stronger binding
Settings in all cases: glycan notation: IUPAC condensed, linker removed
[1] = target: Gal(b1-4)GlcNAc(b1-3)Gal(b1-4)GlcNAc(b1-2)Man(a1-3)[Gal(b1-4)GlcNAc(b1-3)Gal(b1-4)GlcNAc(b1-2)Man(a1-6)]Man(b1-4)GlcNAc(b1-4)[Fuc(a1-6)]GlcNAc
Method in brief: (§1)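 Glycan array binding is given as a within-array Z-score, which can be read as non-binding when negative. The arrays, 3228 of them, came from the Consortium for Functional Glycomics database and were retained only where the protein sequence was available. Z-scores were averaged across arrays of the same protein sequence at different concentrations or buffers and across linkers.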

[2] = target: Gal(b1-4)GlcNAc(b1-3)Gal(b1-4)GlcNAc(b1-2)[Gal(b1-4)GlcNAc(b1-3)Gal(b1-4)GlcNAc(b1-6)]Man(a1-6)[Gal(b1-4)GlcNAc(b1-3)Gal(b1-4)GlcNAc(b1-2)Man(a1-3)]Man(b1-4)GlcNAc(b1-4)GlcNAc
Method in brief: as §1

[3] = target: Gal(b1-4)GlcNAc(b1-3)Gal(b1-4)GlcNAc(b1-2)[Gal(b1-4)GlcNAc(b1-3)Gal(b1-4)GlcNAc(b1-6)]Man(a1-6)[Gal(b1-4)GlcNAc(b1-3)Gal(b1-4)GlcNAc(b1-2)Man(a1-3)]Man(b1-4)GlcNAc(b1-4)[Fuc(a1-6)]GlcNAc
Method in brief: as §1

[4] = target: Gal(b1-4)GlcNAc(b1-3)Gal(b1-4)GlcNAc(b1-3)Gal(b1-4)GlcNAc
Method in brief: as §1

[5] = target: Gal(b1-4)GlcNAc(b1-3)Gal(b1-4)GlcNAc(b1-3)Gal(b1-4)GlcNAc(b1-2)Man(a1-3)[Gal(b1-4)GlcNAc(b1-3)Gal(b1-4)GlcNAc(b1-3)Gal(b1-4)GlcNAc(b1-2)Man(a1-6)]Man(b1-4)GlcNAc(b1-4)GlcNAc
Method in brief: as §1

[6] = target: Gal(b1-4)GlcNAc(b1-3)Gal(b1-4)GlcNAc(b1-3)Gal(b1-4)GlcNAc(b1-2)Man(a1-3)[Gal(b1-4)GlcNAc(b1-3)Gal(b1-4)GlcNAc(b1-3)Gal(b1-4)GlcNAc(b1-2)Man(a1-6)]Man(b1-4)GlcNAc(b1-4)[Fuc(a1-6)]GlcNAc
Method in brief: as §1

[7] = target: Gal(b1-4)GlcNAc(b1-3)Gal(b1-4)GlcNAc(b1-3)Gal(b1-4)GlcNAc(b1-2)[Gal(b1-4)GlcNAc(b1-3)Gal(b1-4)GlcNAc(b1-3)Gal(b1-4)GlcNAc(b1-6)]Man(a1-6)[Gal(b1-4)GlcNAc(b1-3)Gal(b1-4)GlcNAc(b1-3)Gal(b1-4)GlcNAc(b1-2)Man(a1-3)]Man(b1-4)GlcNAc(b1-4)[Fuc(a1-6)]GlcNAc
Method in brief: as §1

[8] = target: Gal(b1-4)GlcNAc(b1-3)Gal(b1-4)GlcNAc(b1-3)Gal(b1-4)GlcNAc(b1-3)Gal(b1-4)GlcNAc(b1-2)Man(a1-3)[Gal(b1-4)GlcNAc(b1-3)Gal(b1-4)GlcNAc(b1-3)Gal(b1-4)GlcNAc(b1-3)Gal(b1-4)GlcNAc(b1-2)Man(a1-6)]Man(b1-4)GlcNAc(b1-4)GlcNAc
Method in brief: as §1

[9] = target: Gal(b1-4)GlcNAc(b1-3)Gal(b1-4)GlcNAc(b1-3)Gal(b1-4)GlcNAc(b1-3)Gal(b1-4)GlcNAc(b1-2)Man(a1-3)[Gal(b1-4)GlcNAc(b1-3)Gal(b1-4)GlcNAc(b1-3)Gal(b1-4)GlcNAc(b1-3)Gal(b1-4)GlcNAc(b1-2)Man(a1-6)]Man(b1-4)GlcNAc(b1-4)[Fuc(a1-6)]GlcNAc
Method in brief: as §1

[10] = target: Gal(b1-4)GlcNAc(b1-3)Gal(b1-4)GlcNAc(b1-3)Gal(b1-4)GlcNAc(b1-3)Gal(b1-4)GlcNAc(b1-2)[Gal(b1-4)GlcNAc(b1-3)Gal(b1-4)GlcNAc(b1-3)Gal(b1-4)GlcNAc(b1-3)Gal(b1-4)GlcNAc(b1-6)]Man(a1-6)[Gal(b1-4)GlcNAc(b1-3)Gal(b1-4)GlcNAc(b1-3)Gal(b1-4)GlcNAc(b1-3)Gal(b1-4)GlcNAc(b1-2)Man(a1-3)]Man(b1-4)GlcNAc(b1-4)[Fuc(a1-6)]GlcNAc
Method in brief: as §1

[11] = target: Gal(b1-4)GlcNAc(b1-3)Gal(b1-4)GlcNAc(b1-3)Gal(b1-4)GlcNAc(b1-3)Gal(b1-4)GlcNAc(b1-3)Gal(b1-4)GlcNAc(b1-2)Man(a1-3)[Gal(b1-4)GlcNAc(b1-3)Gal(b1-4)GlcNAc(b1-3)Gal(b1-4)GlcNAc(b1-3)Gal(b1-4)GlcNAc(b1-3)Gal(b1-4)GlcNAc(b1-2)Man(a1-6)]Man(b1-4)GlcNAc(b1-4)GlcNAc
Method in brief: as §1

[12] = target: Gal(b1-4)GlcNAc(b1-3)Gal(b1-4)GlcNAc(b1-3)Gal(b1-4)GlcNAc(b1-3)Gal(b1-4)GlcNAc(b1-3)Gal(b1-4)GlcNAc(b1-2)Man(a1-3)[Gal(b1-4)GlcNAc(b1-3)Gal(b1-4)GlcNAc(b1-3)Gal(b1-4)GlcNAc(b1-3)Gal(b1-4)GlcNAc(b1-3)Gal(b1-4)GlcNAc(b1-2)Man(a1-6)]Man(b1-4)GlcNAc(b1-4)[Fuc(a1-6)]GlcNAc
Method in brief: as §1

[13] = target: Gal(b1-4)GlcNAc(b1-3)Gal(b1-4)GlcNAc(b1-3)Gal(b1-4)GlcNAc(b1-3)Gal(b1-4)GlcNAc(b1-3)Gal(b1-4)GlcNAc(b1-2)[Gal(b1-4)GlcNAc(b1-3)Gal(b1-4)GlcNAc(b1-3)Gal(b1-4)GlcNAc(b1-3)Gal(b1-4)GlcNAc(b1-3)Gal(b1-4)GlcNAc(b1-6)]Man(a1-6)[Gal(b1-4)GlcNAc(b1-3)Gal(b1-4)GlcNAc(b1-3)Gal(b1-4)GlcNAc(b1-3)Gal(b1-4)GlcNAc(b1-3)Gal(b1-4)GlcNAc(b1-2)Man(a1-3)]Man(b1-4)GlcNAc(b1-4)[Fuc(a1-6)]GlcNAc
Method in brief: as §1

[14] = target: Gal(b1-4)GlcNAc(b1-3)Gal(b1-4)GlcNAc(b1-3)Gal(b1-4)GlcNAc(b1-3)Gal(b1-4)GlcNAc(b1-3)Gal(b1-4)GlcNAc(b1-3)Gal(b1-4)GlcNAc(b1-2)Man(a1-3)[Gal(b1-4)GlcNAc(b1-3)Gal(b1-4)GlcNAc(b1-3)Gal(b1-4)GlcNAc(b1-3)Gal(b1-4)GlcNAc(b1-3)Gal(b1-4)GlcNAc(b1-3)Gal(b1-4)GlcNAc(b1-2)Man(a1-6)]Man(b1-4)GlcNAc(b1-4)GlcNAc
Method in brief: as §1

[15] = target: Gal(b1-4)GlcNAc(b1-3)Gal(b1-4)GlcNAc(b1-3)GalNAc
Method in brief: as §1

[16] = target: Gal(b1-4)GlcNAc(b1-3)Gal(b1-4)GlcNAc(b1-3)[Gal(b1-4)GlcNAc(b1-3)Gal(b1-4)GlcNAc(b1-6)]GalNAc
Method in brief: as §1

[17] = target: Gal(b1-4)GlcNAc(b1-3)Gal(b1-4)GlcNAc(b1-6)[Gal(b1-3)]GalNAc
Method in brief: as §1

[18] = target: Gal(b1-4)GlcNAc(b1-3)Gal(b1-4)[Fuc(a1-3)]GlcNAc(b1-3)Gal(b1-4)[Fuc(a1-3)]GlcNAc
Method in brief: as §1

[19] = target: Gal(b1-4)GlcNAc(b1-3)GalNAc
Method in brief: as §1

[20] = target: Gal(b1-4)GlcNAc(b1-3)[Fuc(a1-3)GlcNAc(b1-6)]Gal(b1-4)Glc
Method in brief: as §1

[21] = target: Gal(b1-4)GlcNAc(b1-3)[Gal(b1-4)GlcNAc(b1-6)]Gal(b1-4)GlcNAc
Method in brief: as §1

[22] = target: Gal(b1-4)GlcNAc(b1-3)[GlcNAc(b1-6)]Gal(b1-4)GlcNAc
Method in brief: as §1

B1: Actd5 (Actinidia), P84527 (protein)
chain: ISSCNGPCRDLNDCDGQLICIKGKCNDDPQVGTHICRGTTHSHQPGGCKPSGTLTCRGKSYPTYDCSPPVTSSTPAKLTNNDFSEGGDDGGPSECDESYHNNNERIVALSTGWYNGGSRCGKMIRITASNGKSVSAKVVDECDSRHGCDKEHAGQPPCRNNIVDGSNAVWSALGLDKNVGVVDITWSMA
glycan array binding signal (z-score) [1]: 2.17 | glycan array binding signal (z-score) [2]: 0.991 | glycan array binding signal (z-score) [3]: 0.632 | glycan array binding signal (z-score) [4]: -1 | glycan array binding signal (z-score) [5]: 2.6 | glycan array binding signal (z-score) [6]: 1.54 | glycan array binding signal (z-score) [7]: 1.33 | glycan array binding signal (z-score) [8]: 1.34 | glycan array binding signal (z-score) [9]: 0.846 | glycan array binding signal (z-score) [10]: 0.319 | glycan array binding signal (z-score) [11]: 0.25 | glycan array binding signal (z-score) [12]: 1.17 | glycan array binding signal (z-score) [13]: 0.644 | glycan array binding signal (z-score) [14]: -0.135 | glycan array binding signal (z-score) [15]: 2.99 | glycan array binding signal (z-score) [16]: 2.99 | glycan array binding signal (z-score) [17]: 0.533 | glycan array binding signal (z-score) [18]: -0.74 | glycan array binding signal (z-score) [19]: 0.34 | glycan array binding signal (z-score) [20]: 0.348 | glycan array binding signal (z-score) [21]: -0.117 | glycan array binding signal (z-score) [22]: -0.668
